The supplement of paper PMC10849652
The list shows a part of the results.

Sequences of proteins named here, by UniProt entry; tags and fusion partners are left off. A change or cut given only in a name is not applied to a line headed by its entry.
UniProt Q04837: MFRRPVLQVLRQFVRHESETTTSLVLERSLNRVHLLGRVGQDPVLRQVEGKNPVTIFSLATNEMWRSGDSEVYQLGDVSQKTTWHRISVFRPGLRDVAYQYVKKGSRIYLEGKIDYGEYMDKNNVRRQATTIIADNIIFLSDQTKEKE
UniProt Q9HBM1: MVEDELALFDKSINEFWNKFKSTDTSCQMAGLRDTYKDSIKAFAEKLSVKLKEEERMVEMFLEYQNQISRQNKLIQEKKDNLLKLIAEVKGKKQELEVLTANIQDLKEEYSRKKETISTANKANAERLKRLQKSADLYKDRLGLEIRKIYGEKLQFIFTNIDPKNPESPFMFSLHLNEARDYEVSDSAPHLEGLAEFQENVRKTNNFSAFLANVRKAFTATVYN
UniProt Q8IYB3: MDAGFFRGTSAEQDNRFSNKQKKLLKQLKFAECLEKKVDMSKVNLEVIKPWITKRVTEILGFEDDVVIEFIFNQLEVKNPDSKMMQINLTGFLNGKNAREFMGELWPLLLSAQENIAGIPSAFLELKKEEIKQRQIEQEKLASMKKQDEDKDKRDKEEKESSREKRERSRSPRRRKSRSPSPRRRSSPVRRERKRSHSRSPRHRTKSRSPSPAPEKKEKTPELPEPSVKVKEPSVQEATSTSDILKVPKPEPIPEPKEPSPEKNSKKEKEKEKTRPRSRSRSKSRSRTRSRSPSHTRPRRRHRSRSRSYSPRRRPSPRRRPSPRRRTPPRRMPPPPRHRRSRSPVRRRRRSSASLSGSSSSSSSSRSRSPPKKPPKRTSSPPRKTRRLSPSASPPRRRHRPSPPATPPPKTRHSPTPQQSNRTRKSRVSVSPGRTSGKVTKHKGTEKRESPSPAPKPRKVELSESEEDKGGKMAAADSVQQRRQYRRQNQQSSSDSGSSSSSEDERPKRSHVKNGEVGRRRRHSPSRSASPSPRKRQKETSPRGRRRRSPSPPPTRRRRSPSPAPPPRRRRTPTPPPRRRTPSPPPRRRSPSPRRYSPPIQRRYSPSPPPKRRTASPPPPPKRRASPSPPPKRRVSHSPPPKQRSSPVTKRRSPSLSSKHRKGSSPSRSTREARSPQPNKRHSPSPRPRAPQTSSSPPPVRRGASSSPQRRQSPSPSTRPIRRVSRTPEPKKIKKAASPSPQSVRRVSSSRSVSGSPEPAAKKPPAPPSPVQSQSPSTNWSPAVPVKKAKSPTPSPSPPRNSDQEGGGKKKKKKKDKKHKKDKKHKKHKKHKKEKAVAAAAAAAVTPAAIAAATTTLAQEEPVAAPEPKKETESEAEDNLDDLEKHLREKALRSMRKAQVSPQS
UniProt Q9BXP5: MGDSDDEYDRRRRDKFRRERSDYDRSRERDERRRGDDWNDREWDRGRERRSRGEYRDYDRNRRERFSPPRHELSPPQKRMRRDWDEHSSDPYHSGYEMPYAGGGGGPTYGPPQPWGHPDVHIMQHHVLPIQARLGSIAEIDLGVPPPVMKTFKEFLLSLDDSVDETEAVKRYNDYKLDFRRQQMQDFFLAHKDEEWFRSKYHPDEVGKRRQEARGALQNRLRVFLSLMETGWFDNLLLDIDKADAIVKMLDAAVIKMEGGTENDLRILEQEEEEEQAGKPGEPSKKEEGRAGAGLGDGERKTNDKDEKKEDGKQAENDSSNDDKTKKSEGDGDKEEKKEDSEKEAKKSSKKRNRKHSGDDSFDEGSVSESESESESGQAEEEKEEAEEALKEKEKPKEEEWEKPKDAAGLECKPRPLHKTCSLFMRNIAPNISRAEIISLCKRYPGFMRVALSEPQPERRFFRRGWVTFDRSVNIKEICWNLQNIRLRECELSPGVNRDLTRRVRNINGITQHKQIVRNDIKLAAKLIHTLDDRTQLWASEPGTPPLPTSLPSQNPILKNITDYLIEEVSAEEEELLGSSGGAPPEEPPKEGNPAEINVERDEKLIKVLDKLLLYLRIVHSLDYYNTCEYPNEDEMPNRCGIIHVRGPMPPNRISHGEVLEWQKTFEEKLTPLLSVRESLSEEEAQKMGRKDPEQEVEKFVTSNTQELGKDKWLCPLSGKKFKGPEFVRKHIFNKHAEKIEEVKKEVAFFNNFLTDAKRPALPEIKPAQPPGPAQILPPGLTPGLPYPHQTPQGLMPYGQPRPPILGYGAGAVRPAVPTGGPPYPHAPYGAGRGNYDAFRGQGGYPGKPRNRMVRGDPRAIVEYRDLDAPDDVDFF
UniProt P49458: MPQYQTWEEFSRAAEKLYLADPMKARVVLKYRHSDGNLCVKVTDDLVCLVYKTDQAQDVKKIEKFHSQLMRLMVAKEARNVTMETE
UniProt P10124: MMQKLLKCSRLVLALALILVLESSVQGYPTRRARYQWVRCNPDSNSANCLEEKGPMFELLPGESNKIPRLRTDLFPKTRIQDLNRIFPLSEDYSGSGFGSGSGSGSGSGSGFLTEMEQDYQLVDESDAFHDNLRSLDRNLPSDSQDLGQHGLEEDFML
UniProt Q96SB4, whole entry, looked up: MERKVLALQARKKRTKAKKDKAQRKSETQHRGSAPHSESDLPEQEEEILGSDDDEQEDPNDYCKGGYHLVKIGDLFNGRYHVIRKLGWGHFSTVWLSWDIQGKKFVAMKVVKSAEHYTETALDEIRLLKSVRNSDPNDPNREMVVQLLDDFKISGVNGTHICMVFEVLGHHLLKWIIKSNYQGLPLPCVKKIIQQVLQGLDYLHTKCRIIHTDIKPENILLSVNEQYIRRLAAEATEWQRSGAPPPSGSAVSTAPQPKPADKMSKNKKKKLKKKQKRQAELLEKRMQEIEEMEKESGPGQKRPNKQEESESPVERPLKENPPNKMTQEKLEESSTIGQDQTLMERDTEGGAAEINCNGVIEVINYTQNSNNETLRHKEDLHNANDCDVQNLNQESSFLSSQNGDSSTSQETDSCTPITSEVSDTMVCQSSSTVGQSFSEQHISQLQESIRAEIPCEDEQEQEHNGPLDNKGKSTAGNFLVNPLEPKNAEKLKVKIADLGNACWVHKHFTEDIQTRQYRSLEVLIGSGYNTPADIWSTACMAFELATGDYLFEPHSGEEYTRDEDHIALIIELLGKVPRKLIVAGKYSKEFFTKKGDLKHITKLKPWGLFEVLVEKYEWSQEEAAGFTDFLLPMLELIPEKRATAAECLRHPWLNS
UniProt Q9UQ90: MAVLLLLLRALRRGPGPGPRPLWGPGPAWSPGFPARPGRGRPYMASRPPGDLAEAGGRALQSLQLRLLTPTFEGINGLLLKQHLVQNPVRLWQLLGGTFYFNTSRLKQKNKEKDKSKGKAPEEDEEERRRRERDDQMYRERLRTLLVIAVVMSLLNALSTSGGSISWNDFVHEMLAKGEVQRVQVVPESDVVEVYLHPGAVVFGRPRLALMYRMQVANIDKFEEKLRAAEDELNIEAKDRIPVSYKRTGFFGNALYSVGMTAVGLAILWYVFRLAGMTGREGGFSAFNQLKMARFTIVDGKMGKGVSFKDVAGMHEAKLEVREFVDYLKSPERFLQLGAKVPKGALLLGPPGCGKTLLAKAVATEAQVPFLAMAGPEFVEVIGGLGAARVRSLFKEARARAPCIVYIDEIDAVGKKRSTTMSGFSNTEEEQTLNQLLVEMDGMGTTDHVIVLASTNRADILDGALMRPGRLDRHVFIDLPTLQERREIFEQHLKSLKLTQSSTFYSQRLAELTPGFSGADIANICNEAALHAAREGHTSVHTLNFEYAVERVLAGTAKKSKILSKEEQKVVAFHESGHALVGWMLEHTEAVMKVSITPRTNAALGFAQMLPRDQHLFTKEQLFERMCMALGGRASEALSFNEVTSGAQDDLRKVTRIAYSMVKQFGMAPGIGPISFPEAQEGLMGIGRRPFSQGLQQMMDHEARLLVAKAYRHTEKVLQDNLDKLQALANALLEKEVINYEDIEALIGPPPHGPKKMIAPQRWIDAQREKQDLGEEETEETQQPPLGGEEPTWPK
UniProt Q8NBT2: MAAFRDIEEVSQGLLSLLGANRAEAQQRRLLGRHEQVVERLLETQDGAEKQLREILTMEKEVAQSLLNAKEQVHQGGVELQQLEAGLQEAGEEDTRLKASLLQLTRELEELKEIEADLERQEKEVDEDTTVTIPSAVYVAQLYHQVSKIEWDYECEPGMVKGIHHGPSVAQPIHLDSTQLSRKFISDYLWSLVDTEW
UniProt O95793: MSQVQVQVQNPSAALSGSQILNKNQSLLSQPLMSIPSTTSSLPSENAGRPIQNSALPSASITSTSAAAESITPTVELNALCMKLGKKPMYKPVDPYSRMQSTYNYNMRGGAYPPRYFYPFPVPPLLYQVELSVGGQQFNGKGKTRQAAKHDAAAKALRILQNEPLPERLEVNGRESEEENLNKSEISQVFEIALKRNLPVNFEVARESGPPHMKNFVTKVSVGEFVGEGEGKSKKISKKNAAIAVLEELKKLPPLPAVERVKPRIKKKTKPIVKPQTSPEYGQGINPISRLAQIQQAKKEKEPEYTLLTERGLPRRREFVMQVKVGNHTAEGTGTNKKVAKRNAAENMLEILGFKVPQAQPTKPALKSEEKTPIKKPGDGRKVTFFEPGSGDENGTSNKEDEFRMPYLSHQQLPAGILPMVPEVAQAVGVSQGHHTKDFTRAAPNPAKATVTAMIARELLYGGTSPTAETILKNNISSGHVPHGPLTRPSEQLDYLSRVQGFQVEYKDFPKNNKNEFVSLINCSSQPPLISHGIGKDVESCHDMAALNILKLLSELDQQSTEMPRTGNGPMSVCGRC
UniProt P37108: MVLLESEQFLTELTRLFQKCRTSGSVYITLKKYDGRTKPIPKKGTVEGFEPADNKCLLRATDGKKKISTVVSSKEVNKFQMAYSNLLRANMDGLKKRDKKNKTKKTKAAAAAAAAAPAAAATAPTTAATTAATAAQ
UniProt Q13243: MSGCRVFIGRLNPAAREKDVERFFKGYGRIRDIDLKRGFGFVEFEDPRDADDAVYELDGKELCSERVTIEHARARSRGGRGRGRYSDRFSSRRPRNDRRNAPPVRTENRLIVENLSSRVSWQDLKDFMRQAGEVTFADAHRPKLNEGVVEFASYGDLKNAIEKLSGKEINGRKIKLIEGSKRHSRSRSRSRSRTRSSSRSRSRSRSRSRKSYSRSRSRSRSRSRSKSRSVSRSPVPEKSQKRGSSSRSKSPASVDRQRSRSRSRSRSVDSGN
UniProt P31948, whole entry, looked up: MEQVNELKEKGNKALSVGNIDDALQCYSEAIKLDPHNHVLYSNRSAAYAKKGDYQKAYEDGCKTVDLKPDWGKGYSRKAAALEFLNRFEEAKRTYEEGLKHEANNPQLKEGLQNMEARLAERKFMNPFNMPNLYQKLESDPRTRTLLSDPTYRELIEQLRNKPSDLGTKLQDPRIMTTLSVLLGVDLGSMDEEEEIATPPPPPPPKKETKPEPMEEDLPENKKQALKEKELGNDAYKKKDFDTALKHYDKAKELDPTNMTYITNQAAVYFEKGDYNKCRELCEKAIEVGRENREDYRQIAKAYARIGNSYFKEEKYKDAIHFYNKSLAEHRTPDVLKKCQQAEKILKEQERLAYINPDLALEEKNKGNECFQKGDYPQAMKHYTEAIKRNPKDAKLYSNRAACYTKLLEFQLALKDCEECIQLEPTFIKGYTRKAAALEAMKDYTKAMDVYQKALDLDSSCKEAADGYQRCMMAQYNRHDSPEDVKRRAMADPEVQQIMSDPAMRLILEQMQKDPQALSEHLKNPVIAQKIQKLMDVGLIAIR
UniProt Q8NB90: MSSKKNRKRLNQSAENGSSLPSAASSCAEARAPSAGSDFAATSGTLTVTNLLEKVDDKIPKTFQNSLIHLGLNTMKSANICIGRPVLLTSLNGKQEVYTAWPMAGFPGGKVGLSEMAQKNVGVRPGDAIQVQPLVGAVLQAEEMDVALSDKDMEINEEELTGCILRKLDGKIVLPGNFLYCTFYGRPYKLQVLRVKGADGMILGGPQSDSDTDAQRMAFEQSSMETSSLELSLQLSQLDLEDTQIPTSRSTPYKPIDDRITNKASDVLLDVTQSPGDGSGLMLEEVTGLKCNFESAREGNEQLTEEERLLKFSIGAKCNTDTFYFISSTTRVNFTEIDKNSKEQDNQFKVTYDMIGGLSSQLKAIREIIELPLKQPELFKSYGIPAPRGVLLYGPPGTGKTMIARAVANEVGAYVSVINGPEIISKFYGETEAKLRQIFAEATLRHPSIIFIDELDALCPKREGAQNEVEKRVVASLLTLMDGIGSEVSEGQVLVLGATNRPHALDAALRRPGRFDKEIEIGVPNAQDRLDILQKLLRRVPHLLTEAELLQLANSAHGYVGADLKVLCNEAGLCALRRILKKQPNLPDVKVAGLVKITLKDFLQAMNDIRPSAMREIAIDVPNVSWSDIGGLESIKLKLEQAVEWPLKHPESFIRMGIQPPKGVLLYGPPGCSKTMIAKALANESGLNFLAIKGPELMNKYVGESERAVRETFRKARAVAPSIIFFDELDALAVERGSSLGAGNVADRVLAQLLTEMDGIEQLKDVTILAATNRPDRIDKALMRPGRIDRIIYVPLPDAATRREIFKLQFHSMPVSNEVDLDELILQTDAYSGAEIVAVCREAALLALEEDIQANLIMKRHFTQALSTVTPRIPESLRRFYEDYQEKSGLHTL

Compound: CS(=O)(=O)c1ccc(-c2cnc(N)c(C(=O)Nc3ccccc3)n2)cc1
Assay: log2 fold change, soluble protein after heating vs DMSO (PISA); higher = thermal stabilisation; K562 cells, 10 uM, 30 min; active = over 0.2 and 3.5 SD of the protein, either way, in both replicates (recomputed)
In short: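 Aliquots of K562 cells (2×10^6 cells/mL) treated with 10 μM compound for 30 min were heated for 3 min over 48°C-58°C. After pooling and extraction in PBS with 0.5% NP-40 at 4°C, soluble protein from a 21,000xg, 90 min spin was quantified by TMTpro 16plex LC-MS/MS with channel sums equalised. Thermal stability is expressed against control samples, from duplicates, as a log2 fold change.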

| Target | log2 fold change |
| --- | --- |
| SSBP1 (UniProt Q04837) | inactive: 0.043 |
| STAMBP (UniProt O95630) | inactive: -0.004 |
| SPC25 (UniProt Q9HBM1) | inactive: -0.005 |
| SRRM1 (UniProt Q8IYB3) | inactive: -0.018 |
| SSR1 (UniProt P43307) | inactive: 0.004 |
| SRRT (UniProt Q9BXP5) | inactive: 0.084 |
| STK11 (UniProt Q15831) | inactive: 0.032 |
| SPTA1 (UniProt P02549) | inactive: 0.044 |
| SPTAN1 isoform 2 (UniProt Q13813) | inactive: -0.033 |
| SRP9 (UniProt P49458) | inactive: -0.071 |
| SPN (UniProt P16150) | inactive: 0.035 |
| SPTLC2 (UniProt O15270) | inactive: 0.048 |
| SRGN (UniProt P10124) | inactive: 0.01 |
| SRPK1 (UniProt Q96SB4) | inactive: -0.039 |
| SPG7 (UniProt Q9UQ90) | inactive: -0.002 |
| SRP19 (UniProt P09132) | inactive: 0.048 |
| SPRY4 (UniProt Q9C004) | inactive: -0.043 |
| SPC24 (UniProt Q8NBT2) | inactive: -0.01 |
| STAU1 (UniProt O95793) | inactive: -0.119 |
| SRP14 (UniProt P37108) | inactive: -0.078 |
| SRSF5 (UniProt Q13243) | inactive: -0.082 |
| SRM (UniProt P19623) | inactive: 0.053 |
| STIP1 isoform 2 (UniProt P31948) | inactive: -0.046 |
| SPATA5 (UniProt Q8NB90) | inactive: -0.016 |

Individual results from the results shown.
Under log2 fold change, SPTA1 (UniProt P02549) has the entry inactive: 0.044
Under log2 fold change, STAMBP (UniProt O95630) has the entry inactive: -0.004
